Measured values: patent US20030162221A1
Results are given in words; binding and its absence hold for the method and conditions named. Binding seen in cells or lysates may run through a third protein. Some entries that bind do so weakly or less than the wild type. Sequences can lack the tags named with a protein.

Assays:
[1] = biological target: T1, Mre11 (Saccharomyces cerevisiae) (UniProt P32829); assay: anti-FLAG co-IP, LC-MS/MS; pair by Table 2
T1 sequence (looked up): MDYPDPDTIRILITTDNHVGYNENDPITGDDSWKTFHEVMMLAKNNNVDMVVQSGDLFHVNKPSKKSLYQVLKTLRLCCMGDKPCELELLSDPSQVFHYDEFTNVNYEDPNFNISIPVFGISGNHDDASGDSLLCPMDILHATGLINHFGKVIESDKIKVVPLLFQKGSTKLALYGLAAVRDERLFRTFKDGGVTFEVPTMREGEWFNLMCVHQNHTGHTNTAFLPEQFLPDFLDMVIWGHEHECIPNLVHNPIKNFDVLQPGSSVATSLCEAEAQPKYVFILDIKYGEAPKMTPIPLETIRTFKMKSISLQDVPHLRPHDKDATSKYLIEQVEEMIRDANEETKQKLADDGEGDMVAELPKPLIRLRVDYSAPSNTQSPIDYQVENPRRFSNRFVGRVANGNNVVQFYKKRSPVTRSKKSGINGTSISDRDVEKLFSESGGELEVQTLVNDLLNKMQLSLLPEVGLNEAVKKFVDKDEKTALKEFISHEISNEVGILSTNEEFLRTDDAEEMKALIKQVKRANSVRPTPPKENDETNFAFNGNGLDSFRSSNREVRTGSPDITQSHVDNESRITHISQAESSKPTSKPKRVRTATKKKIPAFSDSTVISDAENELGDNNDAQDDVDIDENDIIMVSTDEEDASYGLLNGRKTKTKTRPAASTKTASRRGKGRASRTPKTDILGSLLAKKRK

[2] = biological target: T2, Rad50 (Saccharomyces cerevisiae) (UniProt P12753); assay: anti-FLAG co-IP, LC-MS/MS
T2 sequence (looked up): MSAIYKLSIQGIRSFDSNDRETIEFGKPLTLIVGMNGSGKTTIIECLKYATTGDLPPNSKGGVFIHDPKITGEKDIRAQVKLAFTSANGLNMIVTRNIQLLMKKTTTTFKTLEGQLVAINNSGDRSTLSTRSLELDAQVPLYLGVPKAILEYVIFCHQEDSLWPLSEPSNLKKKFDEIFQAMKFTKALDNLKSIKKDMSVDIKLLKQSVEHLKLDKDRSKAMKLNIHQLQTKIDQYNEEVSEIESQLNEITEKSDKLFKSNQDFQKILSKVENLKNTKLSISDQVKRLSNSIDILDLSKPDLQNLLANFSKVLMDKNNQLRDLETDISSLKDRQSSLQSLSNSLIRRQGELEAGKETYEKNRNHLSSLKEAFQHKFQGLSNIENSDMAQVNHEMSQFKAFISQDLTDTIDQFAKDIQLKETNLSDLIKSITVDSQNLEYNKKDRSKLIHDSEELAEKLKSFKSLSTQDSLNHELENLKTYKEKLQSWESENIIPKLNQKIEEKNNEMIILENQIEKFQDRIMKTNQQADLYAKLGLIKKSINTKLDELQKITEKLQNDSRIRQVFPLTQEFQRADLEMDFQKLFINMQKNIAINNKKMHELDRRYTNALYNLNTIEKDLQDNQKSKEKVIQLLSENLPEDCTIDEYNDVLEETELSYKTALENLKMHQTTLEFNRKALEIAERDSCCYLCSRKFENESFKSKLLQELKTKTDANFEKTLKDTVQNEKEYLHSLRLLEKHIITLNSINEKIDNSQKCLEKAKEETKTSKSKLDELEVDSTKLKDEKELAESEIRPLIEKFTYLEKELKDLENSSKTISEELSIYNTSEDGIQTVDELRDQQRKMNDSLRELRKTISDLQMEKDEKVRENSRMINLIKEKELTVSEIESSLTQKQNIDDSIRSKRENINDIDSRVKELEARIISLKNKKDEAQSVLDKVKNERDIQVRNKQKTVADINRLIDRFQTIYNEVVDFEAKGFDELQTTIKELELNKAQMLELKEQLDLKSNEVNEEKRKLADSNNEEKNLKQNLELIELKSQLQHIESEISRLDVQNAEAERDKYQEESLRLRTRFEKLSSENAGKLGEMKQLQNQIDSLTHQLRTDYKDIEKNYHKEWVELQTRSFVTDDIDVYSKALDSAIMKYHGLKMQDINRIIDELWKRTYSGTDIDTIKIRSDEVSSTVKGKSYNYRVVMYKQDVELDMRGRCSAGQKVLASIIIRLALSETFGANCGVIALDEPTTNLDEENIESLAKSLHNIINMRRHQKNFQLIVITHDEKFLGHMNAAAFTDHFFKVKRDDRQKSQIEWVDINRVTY

[3] = biological target: T1, Mre11 (Saccharomyces cerevisiae); assay: anti-FLAG co-IP, LC-MS/MS

Measured: binding

B1: Xrs2 (protein, Saccharomyces cerevisiae, UniProt P33301 1-854, looked up)
chain: MWVVRYQNTLEDGSISFISCCLQAFKTYSIGRSSKNPLIIKNDKSISRQHITFKWEINNSSDLKHSSLCLVNKGKLTSLNKKFMKVGETFTINASDVLKSTIIELGTTPIRIEFEWINEVWNIPPHLTQFRTMLSEYGISTEISINDIPANLMISDYPKSEDNSIRELYALVSTIPMKKSRFLMELCNTLLPTSKTNLKFDEMWNDMISNPEYNVFDFDPNILLSKFMRLNNIRVLTTIKSEPRLSSLLRTFNINLFAFDNIDSLYKYVDSLEASTEYLILTTTDKKENGKILCTIKTMLTSIIDGTLSAVINMKGASSRTLDNGKFDQISEGMSTILKTSRAPEVEASPVVSKKRKLNRRRVLPLDSLDFFAGGLSTKTLSENRSLTDAKRLNCGAESKTVISSPNIAEADEKHAPFLQNALKPTEDIGKKSGHSSPGAIIVSSPNLGTVNTSEDSLDKSLQSHKLPQPSLPEVAGIGSQTISSNSADYETAAVNSMDDAEVTKNFRVNHHQNIEQPSKNIRKLSNYSREISSPLQENCKSPVKELSIKEKSGTPHAFVEAIQETKNREVKRVKSTIVELKDEELSEEAINQLKNLAIVEPSNNLLRKSFDSEGNKTSRTTEKWENSLMEPEWHKRKNFKTFVKVRPKSKAHKEEGKNNTQSSDFIRNAAFLITRNYVPLKKYSKKDTTTKWGTEENEDMFALTEMERFGSNTFMSDNINSNTIQKRSQALNRFTNEDSSNEGEEDSFSFSRCSGTAASVQPLKNKIFITDEDDLGDIDDKSDRLNHRENNRNLFVVKEMNLRPNLSEECSKQSRHSRSATSRSRGSFGASNNGDGDDDDDDGPKFTFKRRKG
binds: [1] | [2] | [3]
